Measured values: PubChem BioAssay AID624297 (National Center for Advancing Translational Sciences (NCATS), 2012)
Hit rate of the full screen: of about 340,000 compounds, about 6,200 (1.8%) were called active. Inconclusive means that the source gave no clear call. Such entries were picked first, then a sample of the others. Calls follow the shape of the dose curve; as a rule, active = well fitted activation curve with a large enough effect; inconclusive = small, poorly fitted or top-dose-only effect; inactive = no such curve, though single readings can be large or run the other way. A potency beside an inconclusive call is a rough fit, not a confirmed value.
Potency is read from the fitted curve at half-maximal effect.

Assay: A quantitative high throughput screen for small molecules that induce DNA re-replication in SW480 colon adenocarcinoma cells. Also: nearly all actives have a fitted effect of over 55% in size. As to re-replication activation: % of control where 0% means no effect.
Details: Hoechst DNA content imaging, 48 h; re-replication activation: at 46.1 µM (top of the series) unless noted
Summary of the method: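 SW480 cells exposed to compounds for 48 hr at 37 C, 5% CO2, then Hoechst-stained 40 min. Nuclear DNA content imaged by fluorescence scanning (405 nm excitation, 500-530 nm emission); re-replication scored as increased high-intensity nuclei.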
For Cc1nnc(SCC(=O)Nc2ccc(O)cc2)c2ccccc12, the Potency was inconclusive: 1.64 µM [activator, single point]. With CN(C)S(=O)(=O)c1cccc(NC(=O)CSc2nc3c(cc2C#N)C(=O)CC(C)(C)C3)c1 the Potency was active: 16.4 µM. With O=C(/C(=C/c1ccccc1)n1cncn1)c1ccc(Cl)cc1Cl the Potency was inconclusive: 23.1 µM [activator, partial curve, poor fit]. In the case of O=C(NCC(c1ccco1)N1CCOCC1)c1ccc(F)c(F)c1 (configuration not stated), the Potency is reported as inconclusive: 2.31 µM [activator, partial curve, poor fit]. For Cc1ncc(CN2CCCC(C(=O)Nc3ccc(-n4ccnc4C)cc3)C2)cn1 (configuration not stated), the Potency was inconclusive: 29.1 µM [activator, single point]. With CCN(CC)c1nc2ccccc2nc1C(C#N)C(=O)NCCc1ccccc1 (configuration not stated) the Potency was inconclusive: 8.2 µM [activator, single point]. With O=C(NC(=S)Nc1ccc(N2CCOCC2)cc1)c1ccc2c(c1)OCCO2 the Potency was inconclusive: 29.1 µM [activator, single point]. With O=C(O)c1ccccc1C(=O)N1CCN(c2ncccn2)CC1 the “re-replication activation” value was inactive: -5.21%. With COc1ccc(/C=C/c2ccncc2)cc1OC the “re-replication activation” value was inactive: -11.4%. For CN1/C(=C\C(=O)Nc2cccnc2)c2ccccc2CC1(C)C, the Potency was inconclusive: 23.1 µM [activator, single point]. With COc1cccc(C2CC(c3cccs3)=NN2C(=S)Nc2ccccc2)c1OC (configuration not stated) the Potency was inconclusive: 3.26 µM [activator, single point]. With Cc1ccc2c(c1)C1(C(=O)N2)N2CCCC2C(C(=O)c2ccc3ccccc3c2)C12C(=O)Nc1ccccc12 (configuration not stated) the Potency was inconclusive: 29.1 µM [activator, single point]. In the case of COc1cccc(/C=C2\SC(=S)N(CCCC(=O)N3CCCC3)C2=O)c1, the “re-replication activation” value is reported as inactive: 29.2%. With Cc1nn(-c2ccccc2)c(C)c1/C=C/C(=O)OCC(=O)Nc1ncc(C(F)(F)F)cc1Cl the Potency was inconclusive: 18.4 µM [activator, partial curve, poor fit]. For C=CCN(C(=O)CCC(=O)Nc1cc(C)on1)C(C(=O)NC(C)(C)C)c1ccc(OC)cc1 (configuration not stated), the Potency was inconclusive: 29.1 µM [activator, single point]. In the case of O=C(NNC(=S)Nc1cccc(C(F)(F)F)c1)c1ccc(Cl)cc1Cl, the Potency is reported as inconclusive: 25.9 µM [activator, single point]. For O=S(=O)(NCC(Nc1ccc(Cl)cc1)c1ccccc1)c1ccc(Cl)cc1 (configuration not stated), the Potency was inconclusive: 16.4 µM [activator, partial curve, poor fit]. For CN(CCCC(=O)O)S(=O)(=O)c1ccc2c(c1)C(=O)c1cc(S(=O)(=O)N(C)CCCC(=O)O)ccc1-2, the re-replication activation was inconclusive: -39.5% [activator]. For CCN1C(=NCC(C)C)N[C@@H](c2cccc(C(F)(F)F)c2)C(C(=O)OC)=C1C, the re-replication activation was inactive: -3.24% [at 9.22 µM]. With COC(=O)c1c(NC(=O)/C=C/C(=O)O)sc(C)c1-c1ccc(C)cc1 the Potency was inconclusive: 16.4 µM [activator, single point]. With Cc1c(C)n(Cc2ccccc2)c2ccc(C(=O)O)cc12 the Potency was inconclusive: 4.61 µM [activator, full curve]. In the case of Cc1cc(S(=O)(=O)N2CCC3(CC2)OCCO3)c(C)cc1Cl, the Potency is reported as inconclusive: 29.1 µM [activator, single point]. In the case of N#Cc1ccccc1CSc1ccc(-c2nc3ccccc3[nH]2)cn1, the “re-replication activation” value is reported as inactive: -3.22%. For NC(=S)NNC(=O)[C@@H]1CCCC[C@@H]1C(=O)O, the Potency was active: 0.517 µM. For Cc1oc(-c2cccs2)nc1CNC[C@H]1O[C@@H](n2cnc3c(N)ncnc32)[C@H](O)[C@@H]1O, the Potency was inconclusive: 6.51 µM [activator, single point]. For O=C(N/N=C/c1cccc(Oc2ccccc2)c1)c1cccc(O)c1, the Potency was inconclusive: 14.6 µM [activator, single point]. With O=C(N/N=C/c1ccc(Br)o1)/C(=C/c1ccc([N+](=O)[O-])cc1)NC(=O)c1ccccc1 the Potency was inconclusive: 23.1 µM [activator, single point]. For CC(=O)c1cccc(S(=O)(=O)N2CCCC(c3nc(-c4ccc(C)o4)no3)C2)c1 (configuration not stated), the “re-replication activation” value was inactive: -0.271%. With COc1cccc(C(=O)Nc2cccc3ccccc23)c1 the “re-replication activation” value was inactive: -0.859%. In the case of CCOC(=O)Cc1csc(NS(=O)(=O)c2cccc([N+](=O)[O-])c2)n1, the re-replication activation is reported as inconclusive: 24.3% [activator]. In the case of CC(=O)c1ccc(OC(C)c2nc3ccccc3s2)cc1 (configuration not stated), the “re-replication activation” value is reported as inactive: 3.61%. In the case of CCNc1nc(NCc2ccccc2)nc(SCC(N)=O)n1, the Potency is reported as inconclusive: 1.26 µM [activator, full curve, poor fit]. For COc1cc2c(cc1OC)C(c1ccc(Br)cc1)CC(=O)N2 (configuration not stated), the Potency was inconclusive: 6.51 µM [activator, single point]. With CN(C)c1ncnc2c1ccn2C1OC(CO)C(O)C1O (configuration not stated) the Potency was active: 14.6 µM. In the case of COc1cccc(C(=O)Nc2ccc(NC(=O)c3cc4ccccc4o3)c(OC)c2)c1, the Potency is reported as inconclusive: 1.84 µM [activator, partial curve, poor fit]. With N/C(Cc1ccc(Cl)cc1)=N\OC(=O)c1cccc2ccccc12 the Potency was inconclusive: 29.1 µM [activator, single point]. For CCOc1ccc(C(=O)CC(Sc2ccc(C)cc2)C(=O)O)cc1 (configuration not stated), the Potency was inconclusive: 18.4 µM [activator, single point]. For O=C(NCc1ccco1)c1ccc([N+](=O)[O-])o1, the Potency was inconclusive: 18.4 µM [activator, single point]. With CCN1CCN(c2cc(C)c3cc(NC(=O)c4ccc(Br)o4)ccc3n2)CC1 the Potency was inconclusive: 29.1 µM [activator, single point]. For CCC(OC(=O)C(NC(=O)c1ccccc1)c1ccccc1)C(=O)Nc1cc(C)on1 (configuration not stated), the Potency was inconclusive: 23.1 µM [activator, partial curve, poor fit]. For CCN1CCN(CC(=O)N2CCCC(C(=O)c3ccc(Oc4ccccc4)cc3)C2)CC1 (configuration not stated), the “re-replication activation” value was inactive: 3.18%. In the case of COc1ccc(-c2cc(C(=O)N3CCc4ccccc4C3)no2)cc1, the Potency is reported as inconclusive: 20.6 µM [activator, single point]. For COCCN1CC(=O)N2C(c3cccc(OC)c3)c3[nH]c4ccccc4c3C[C@H]2C1=O (some centres not stated), the “re-replication activation” value was inactive: -3.79%. With S=C(NCCSCc1ccccc1Cl)Nc1ccccc1 the “re-replication activation” value was inactive: -1.35%. With COc1ccc(-c2oc3cc(O)c(OC)c(O)c3c(=O)c2OC)cc1 the Potency was inconclusive: 16.4 µM [activator, single point]. For O=C(Nc1ccc(Br)cn1)c1ccc2nccnc2c1, the Potency was inconclusive: 20.6 µM [activator, single point]. For CCc1ccc(-c2nc(NC(=S)NC(=O)c3cccs3)sc2C)cc1, the “re-replication activation” value was inactive: 20.3%. In the case of COc1ccc(N2CCN(C3CCCN(Cc4ccc(F)cc4Cl)C3)CC2)cc1 (configuration not stated), the Potency is reported as inconclusive: 29.1 µM [activator, single point]. For CCN(CC)c1ccc(/C=N/n2nnnc2N)c(O)c1, the Potency was inconclusive: 18.4 µM [activator, single point]. With CCn1c(SCC(=O)N/N=C/c2c[nH]c3ccccc23)nnc1-c1ccc(C(C)(C)C)cc1 the Potency was inconclusive: 16.4 µM [activator, partial curve, poor fit]. In the case of CCc1ccc(C(=O)C(C)OC(=O)CN2C(=O)NC3(CCCC3)C2=O)cc1 (configuration not stated), the Potency is reported as active: 3.26 µM. With Cc1ccc(-c2csnn2)cc1 the “re-replication activation” value was inactive: -8.73%. For CCn1nnc(-c2ccccc2NC(=O)c2cc(OC)c(OC)c(OC)c2)n1, the Potency was active: 14.6 µM. With Cc1nc(SCC(=O)c2ccccc2)c(C#N)c(-c2ccco2)c1C(=O)NCc1ccco1 the Potency was inconclusive: 18.4 µM [activator, single point]. With Cc1ccc(NC(=O)COC(=O)CCn2c(C)csc2=O)c([N+](=O)[O-])c1 the Potency was inconclusive: 25.9 µM [activator, single point]. For CCC(COC)Oc1cc(NCc2ccccc2)c2ncn(C(C)C)c2c1 (configuration not stated), the Potency was inconclusive: 18.4 µM [activator, single point]. In the case of C[C@@H]1[C@H]2[C@@H]3CC[C@@H](C3)[C@H]2CN[C@H]1c1cn(Cc2ccccc2)c2ccccc12, the Potency is reported as inconclusive: 29.1 µM [activator, single point]. In the case of Cc1ccccc1-c1cc(=O)c2ccccc2o1, the Potency is reported as inconclusive: 11.6 µM [activator, partial curve, poor fit]. In the case of Cc1ccc(Nc2nc(Oc3ccc(OCc4ccccc4)nn3)nc(N3CCOCC3)n2)cc1, the Potency is reported as inconclusive: 7.31 µM [activator, partial curve]. In the case of COc1cccc(NC(=O)CN(c2ccc([N+](=O)[O-])cc2)S(=O)(=O)c2ccccc2)c1, the “re-replication activation” value is reported as inactive: -9.15%. With CC(C)(C)C(=O)NNC(=O)c1cc(C(C)(C)C)nn1Cc1ccccc1 the “re-replication activation” value was inactive: -11%. With Cc1ccc(S(=O)(=O)N2CCCCC2)cc1NC(=O)C1CC(=O)N(c2ccc3c(c2)OCCO3)C1 (configuration not stated) the Potency was inconclusive: 18.4 µM [activator, single point]. For COc1cc(/C=C/C(=O)c2ccc3c(c2)OCCO3)cc(Br)c1OCC(=O)N(C)C, the Potency was active: 4.61 µM. With O=C1CN(C(=O)c2ccc3nc(Cc4cccc(Cl)c4)oc3c2)CCN1 the “re-replication activation” value was inactive: -2.48%. For O=C(c1ccc(F)cc1F)N1CCCC(c2nc(-c3cccs3)no2)C1 (configuration not stated), the Potency was inconclusive: 29.1 µM [activator, single point]. For Cc1c(NC(=O)c2cc3nc(-c4ccc(Cl)cc4)cc(C(F)(F)F)n3n2)c(=O)n(-c2ccccc2)n1C, the Potency was inconclusive: 16.4 µM [activator, single point]. For O=C(CCC(=O)N1CCOc2ccc(Cl)cc21)NCCCN1CCC(Cc2ccccc2)CC1, the “re-replication activation” value was inactive: 6.54%.
